Laboratory results reported in patent publication US20250228834A1, “PHARMACEUTICAL COMPOSITION FOR THE TREATMENT OF COLON AND LUNG CANCER” (HEPAREGENIX GMBH, priority 2022, published 2025).
At least one compound was matched to its structure with a doubt left.

Test system: KRAS mutant lung and colorectal cancer cells (H358, H2122, DLD1, HCT 116)
Experiment: Colony formation matrix (Assay Method A)
Format: cell-based
Details: KRAS mutant cancer cells (H358, H2122, DLD1, HCT 116), fixed and stained after 10 days, FIG. 1
Description: • KRAS mutant lung and colorectal cancer cells: • Lung: H358 (G12C) (ATCC No: CRL-5807) • H2122 (G12C) (ATCC No: CRL-5985) • Colon:DLD1 (G13D) (ATCC No: CCL-221) • HCT 116 (G13D) (ATCC No: CCL-247)
All cell lines were cultured in RPMI 1640 medium (Gibco) supplemented with 10% fetal bovine serum, 1% glutamine and penicillin-streptomycin (Gibco) at 37° C. and 5% CO2. Mycoplasma contamination was excluded via a PCR-based method.
Cell lines were cultured and seeded into 24-well plates. After 24 h incubation, drugs were added using the HP D300 Digital Dispenser. Medium and drugs were refreshed twice a week for 10-14 days. After this, cells were fixed with 4% formaldehyde in PBS and stained with 0.1% crystal violet in water. The quantification of the colony formation matrixes (crystal violet staining per well) was assessed using ImageJ software.
According to Assay Method A cells (H358, H2122, DLD1, HCT 116) were treated with compound (A), Trametinib or their combination at the indicated concentrations (cf. FIG. 1). Drugs were refreshed twice a week. The cells were fixed and stained after 10 days.
According to Assay Method A cells (H358, DLD1, HCT 116) were treated with compound (A), SCH772984 or their combination at the indicated concentrations (cf. FIG. 2). Drugs were refreshed twice a week. The cells were fixed and stained after 10 days.

## CC(=O)Nc1cccc(-n2c(=O)n(C3CC3)c(=O)c3c(Nc4ccc(I)cc4F)n(C)c(=O)c(C)c32)c1 [Trametinib, reference compound]
  toxicity in colony formation matrix, single drug: did not cause toxicity
